Test results taken from US8053463B2, “PPAR active compounds” (Plexxikon Inc., priority 2007, dated 2011).
Some of these results come from one statement about several compounds together.

system: PPARα, PPARγ, or PPARδ; experiment: PPAR activity assays (biochemical and cell based); settings: at least one of the assays, for at least one of PPARα

EC50, ≤ 1000 nM:
O=C(O)CCc1cn(S(=O)(=O)c2cccc(-c3ccc(C(F)(F)F)cc3)c2)c2ccc(Cl)cc12 [Compound P-0002, 3-[5-Chloro-1-(4′-trifluoromethyl-biphenyl-3-sulfonyl)-1H-indol-3-yl]-propionic acid]
O=C(O)CCc1cn(S(=O)(=O)c2cccc(-c3cccc(Cl)c3)c2)c2ccc(Cl)cc12 [Compound P-0003, 3-[5-Chloro-1-(3′-chloro-biphenyl-3-sulfonyl)-1H-indol-3-yl]-propionic acid]
O=C(O)CCc1cn(S(=O)(=O)c2cccc(-c3ccc(Cl)cc3)c2)c2ccc(Cl)cc12 [Compound P-0004, 3-[5-Chloro-1-(4′-chloro-biphenyl-3-sulfonyl)-1H-indol-3-yl]-propionic acid]
COc1ccc(-c2cccc(S(=O)(=O)n3cc(CCC(=O)O)c4cc(Cl)ccc43)c2)cc1 [Compound P-0005, 3-[5-Chloro-1-(4′-methoxy-biphenyl-3-sulfonyl)-1H-indol-3-yl]-propionic acid]
O=C(O)CCc1cn(S(=O)(=O)c2cccc(-c3ccc(F)cc3)c2)c2ccc(Cl)cc12 [Compound P-0006, 3-[5-Chloro-1-(4′-fluoro-biphenyl-3-sulfonyl)-1H-indol-3-yl]-propionic acid]
O=C(O)CCc1cn(S(=O)(=O)c2cccc(-c3ccc(F)cc3F)c2)c2ccc(Cl)cc12 [Compound P-0007, 3-[5-Chloro-1-(2′,4′-difluoro-biphenyl-3-sulfonyl)-1H-indol-3-yl]-propionic acid]
O=C(O)CCc1cn(S(=O)(=O)c2cccc(-c3ccc(F)c(Cl)c3)c2)c2ccc(Cl)cc12 [Compound P-0008, 3-[5-Chloro-1-(3′-chloro-4′-fluoro-biphenyl-3-sulfonyl)-1H-indol-3-yl]-propionic acid]
CCOc1ccc(-c2cccc(S(=O)(=O)n3cc(CCC(=O)O)c4cc(Cl)ccc43)c2)cc1 [Compound P-0009, 3-[5-Chloro-1-(4′-ethoxy-biphenyl-3-sulfonyl)-1H-indol-3-yl]-propionic acid]
O=C(O)CCc1cn(S(=O)(=O)c2cccc(-c3cccc(F)c3)c2)c2ccc(Cl)cc12 [Compound P-0010, 3-[5-Chloro-1-(3′-fluoro-biphenyl-3-sulfonyl)-1H-indol-3-yl]-propionic acid]
O=C(O)CCc1cn(S(=O)(=O)c2cccc(-c3ccccc3F)c2)c2ccc(Cl)cc12 [Compound P-0011, 3-[5-Chloro-1-(2′-fluoro-biphenyl-3-sulfonyl)-1H-indol-3-yl]-propionic acid]
O=C(O)CCc1cn(S(=O)(=O)c2cccc(-c3cccc(OC(F)(F)F)c3)c2)c2ccc(Cl)cc12 [Compound P-0012, 3-[5-Chloro-1-(3′-trifluoromethoxy-biphenyl-3-sulfonyl)-1H-indol-3-yl]-propionic acid]
O=C(O)CCc1cn(S(=O)(=O)c2cccc(-c3ccc(OC(F)(F)F)cc3)c2)c2ccc(Cl)cc12 [Compound P-0013, 3-[5-Chloro-1-(4′-trifluoromethoxy-biphenyl-3-sulfonyl)-1H-indol-3-yl]-propionic acid]
O=C(O)CCc1cn(S(=O)(=O)c2cccc(-c3cccc(C(F)(F)F)c3)c2)c2ccc(Cl)cc12 [Compound P-0014, 3-[5-Chloro-1-(3′-trifluoromethyl-biphenyl-3-sulfonyl)-1H-indol-3-yl]-propionic acid]
O=C(O)CCc1cn(S(=O)(=O)c2cccc(-c3ccc(OCc4ccccc4)cc3F)c2)c2ccc(Cl)cc12 [Compound P-0015, 3-[1-(4′-Benzyloxy-2′-fluoro-biphenyl-3-sulfonyl)-5-chloro-1H-indol-3-yl]-propionic acid]
COc1ccc(-c2cccc(S(=O)(=O)n3cc(CCC(=O)O)c4cc(Cl)ccc43)c2)cn1 [Compound P-0016, 3-{5-Chloro-1-[3-(6-methoxy-pyridin-3-yl)-benzenesulfonyl]-1H-indol-3yl}-propionic acid]
Cc1ccc(-c2cccc(S(=O)(=O)n3cc(CCC(=O)O)c4cc(Cl)ccc43)c2)cc1F [Compound P-0017, 3-[5-Chloro-1-(3′-fluoro-4′-methyl-biphenyl-3-sulfonyl)-1H-indol-3-yl]-propionic acid]
COc1ccc(-c2cccc(S(=O)(=O)n3cc(CCC(=O)O)c4cc(Cl)ccc43)c2)cc1F [Compound P-0018, 3-[5-Chloro-1-(3′-fluoro-4′-methoxy-biphenyl-3-sulfonyl)-1H-indol-3-yl]-propionic acid]
COc1ncc(-c2cccc(S(=O)(=O)n3cc(CCC(=O)O)c4cc(Cl)ccc43)c2)cn1 [Compound P-0019, 3-{5-Chloro-1-[3-(2-methoxy-pyrimidin-5-yl)-benzenesulfonyl]-1H-indol-3-yl}-propionic acid]
COc1ncc(-c2cccc(S(=O)(=O)n3cc(CCC(=O)O)c4cc(Cl)ccc43)c2)c(OC)n1 [Compound P-0020, 3-{5-Chloro-1-[3-(2,4-dimethoxy-pyrimidin-5-yl)-benzenesulfonyl]-1H-indol-3-yl}-propionic acid]
O=C(O)CCc1cn(S(=O)(=O)c2cccc(-c3ccc(C(F)(F)F)cc3F)c2)c2ccc(Cl)cc12 [Compound P-0021, 3-[5-Chloro-1-(2′-fluoro-4′-trifluoromethyl-biphenyl-3-sulfonyl)-1H-indol-3-yl]-propionic acid]
CC(C)CCn1cc(-c2cccc(S(=O)(=O)n3cc(CCC(=O)O)c4cc(Cl)ccc43)c2)cn1 [Compound P-0022, 3-(5-Chloro-1-{3-[1-(3-methyl-butyl)-1H-pyrazol-4-yl]-benzenesulfonyl}-1H-indol-3yl)-propionic acid]
CC(C)Cn1cc(-c2cccc(S(=O)(=O)n3cc(CCC(=O)O)c4cc(Cl)ccc43)c2)cn1 [Compound P-0023, 3-{5-Chloro-1-[3-(1-isobutyl-1H-pyrazol-4-yl)-benzenesulfonyl]-1H-indol-3-yl}-propionic acid]
COc1ccc(-c2cccc(S(=O)(=O)n3cc(CCC(=O)O)c4cc(Cl)ccc43)c2)c(F)c1 [Compound P-0024, 3-[5-Chloro-1-(2′-fluoro-4′-methoxy-biphenyl-3-sulfonyl)-1H-indol-3-yl]-propionic acid]
O=C(O)CCc1cn(S(=O)(=O)c2cccc(-c3ccc(Cl)cc3F)c2)c2ccc(Cl)cc12 [Compound P-0025, 3-[5-Chloro-1-(4′-chloro-2′-fluoro-biphenyl-3-sulfonyl)-1H-indol-3-yl]-propionic acid]
O=C(O)CCc1cn(S(=O)(=O)c2cccc(-c3cccc(Cl)c3)c2)c2ccc(F)cc12 [Compound P-0026, 3-[1-(3′-Chloro-biphenyl-3-sulfonyl)-5-fluoro-1H-indol-3-yl]-propionic acid]
O=C(O)CCc1cn(S(=O)(=O)c2cccc(-c3ccc(Cl)cc3)c2)c2ccc(F)cc12 [Compound P-0027, 3-[1-(4′-Chloro-biphenyl-3-sulfonyl)-5-fluoro-1H-indol-3-yl]-propionic acid]
O=C(O)CCc1cn(S(=O)(=O)c2cccc(-c3ccc(F)cc3)c2)c2ccc(F)cc12 [Compound P-0029, 3-[5-Fluoro-1-(4′-fluoro-biphenyl-3-sulfonyl)-1H-indol-3-yl]-propionic acid]
O=C(O)CCc1cn(S(=O)(=O)c2cccc(-c3ccc(F)c(Cl)c3)c2)c2ccc(F)cc12 [Compound P-0030, 3-[1-(3′-Chloro-4′-fluoro-biphenyl-3-sulfonyl)-5-fluoro-1H-indol-3-yl]-propionic acid]
O=C(O)CCc1cn(S(=O)(=O)c2cccc(-c3cccc(F)c3)c2)c2ccc(F)cc12 [Compound P-0031, 3-[5-Fluoro-1-(3′-fluoro-biphenyl-3-sulfonyl)-1H-indol-3-yl]-propionic acid]
O=C(O)CCc1cn(S(=O)(=O)c2cccc(-c3ccccc3F)c2)c2ccc(F)cc12 [Compound P-0032, 3-[5-Fluoro-1-(2′-fluoro-biphenyl-3-sulfonyl)-1H-indol-3-yl]-propionic acid]
O=C(O)CCc1cn(S(=O)(=O)c2cccc(-c3ccc(OC(F)(F)F)cc3)c2)c2ccc(F)cc12 [Compound P-0034, 3-[5-Fluoro-1-(4′-trifluoromethoxy-biphenyl-3-sulfonyl)-1H-indol-3-yl]-propionic acid]
O=C(O)CCc1cn(S(=O)(=O)c2cccc(-c3ccc(C(F)(F)F)cc3)c2)c2ccc(F)cc12 [Compound P-0035, 3-[5-Fluoro-1-(4′-trifluoromethyl-biphenyl-3-sulfonyl)-1H-indol-3-yl]-propionic acid]
O=C(O)CCc1cn(S(=O)(=O)c2cccc(-c3ccc(OCc4ccccc4)cc3F)c2)c2ccc(F)cc12 [Compound P-0036, 3-[1-(4′-Benzyloxy-2′-fluoro-biphenyl-3-sulfonyl)-5-fluoro-1H-indol-3-yl]-propionic acid]
COc1ccc(-c2cccc(S(=O)(=O)n3cc(CCC(=O)O)c4cc(F)ccc43)c2)cn1 [Compound P-0037, 3-{5-Fluoro-1-[3-(6-methoxy-pyridin-3-yl)-benzenesulfonyl]-1H-indol-3-yl}-propionic acid]
COc1ncc(-c2cccc(S(=O)(=O)n3cc(CCC(=O)O)c4cc(F)ccc43)c2)cn1 [Compound P-0039, 3-{5-Fluoro-1-[3-(2-methoxy-pyrimidin-5-yl)-benzenesulfonyl]-1H-indol-3-yl}-propionic acid]
COc1ncc(-c2cccc(S(=O)(=O)n3cc(CCC(=O)O)c4cc(F)ccc43)c2)c(OC)n1 [Compound P-0040, 3-{1-[3-(2,4-Dimethoxy-pyrimidin-5-yl)-benzenesulfonyl]-5-fluoro-1H-indol-3-yl}-propionic acid]
CC(C)CCn1cc(-c2cccc(S(=O)(=O)n3cc(CCC(=O)O)c4cc(F)ccc43)c2)cn1 [Compound P-0041, 3-(5-Fluoro-1-{3-[1-(3-methyl-butyl)-1H-pyrazol-4-yl]-benzenesulfonyl}-1H-indol-3-yl)-propionic acid]
